Measured data: PubChem BioAssay AID743454 (Peter MacCallum Cancer Centre, 2014)
Here is an unselected part of about 18,000 reagents. In the full data, 450 (2.5%) got an active call. 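Single biological run; no consistent viability z cut-off exists, so the class columns, not z-scores, define the calls.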 Unmarked entries are inactive.

Purpose: 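Knock-downs lowering viability or raising caspase 3/7 activity in vorinostat-treated resistant cells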 (primary screen)
Cells: human HCT116-VR colon cancer cells, selected for vorinostat resistance
Knock-down reagent: siRNA pool against human genes, 40 nM siRNA pool
Timing: vorinostat for 24 h, read-out about 72 h after transfection
Treatment: vorinostat at 2.5 µM final
Detection: 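Two measures, CellTiter-Fluor viability and luminescent caspase 3/7 activity, each as fold change against same-plate mock wells, mean of duplicates, then screen-wide robust z-score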
Reading the numbers: viability robust z-score: higher = more viable cells than screen typical; caspase robust z-score: higher = more caspase 3/7 activity than screen typical
Active means: 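Hits are knock-downs in viability class RV1/RV2 or caspase class CA1/CA2, excluding ones that killed cells in the no-drug cell-count arm; hits then retested with single siRNAs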

| Target gene | viability hit class | caspase hit class | viability robust z-score | caspase robust z-score |
| --- | --- | --- | --- | --- |
| ACBD4 (acyl-CoA binding domain containing 4) | no change | no change | 0.52 | 0.12 |
| GPS2 (G protein pathway suppressor 2) | no change | no change | 0.49 | 2.06 |
| SPACA1 (sperm acrosome associated 1) | no change | no change | 0.99 | -0.14 |
| ABCB1 (ATP binding cassette subfamily B member 1) | no change | no change | -0.12 | 2.21 |
| MAP2K6 (mitogen-activated protein kinase kinase 6) | no change | no change | 0.98 | -0.38 |
| MOCOS (molybdenum cofactor sulfurase) | no change | no change | 0.29 | 3.05 |
| SPEN (spen family transcriptional repressor) | no change | no change | -1.71 | 2.22 |
| OR1L4 (olfactory receptor family 1 subfamily L member 4) | no change | no change | -0.35 | -0.51 |
| CCDC125 (coiled-coil domain containing 125) | no change | no change | -0.12 | -0.42 |
| ARL2BP (ARF like GTPase 2 binding protein) | no change | no change | -0.03 | 0.33 |
| PAGE5 (PAGE family member 5) | no change | no change | -0.16 | 1.11 |
| PHEX (phosphate regulating endopeptidase X-linked) | no change | no change | 0.32 | 0.18 |
| SLC38A12 | no change | no change | -0.84 | 0.02 |
| FASTKD1 (FASTK mitochondrial RNA regulator 1) | no change | no change | -0.51 | 1.25 |
| XCL2 (X-C motif chemokine ligand 2) | no change | no change | 0.68 | 1.01 |
| OR6C3 (olfactory receptor family 6 subfamily C member 3) | no change | no change | -2.04 | 1.38 |
| TTLL11 (tubulin tyrosine ligase like 11) | no change | no change | 1.7 | 0.28 |
| ANKRD13A (ankyrin repeat domain 13A) | no change | no change | -0.83 | -0.12 |
| UAP1 (UDP-N-acetylglucosamine pyrophosphorylase 1) | no change | no change | 1.56 | -0.98 |
| KYAT1 (kynurenine aminotransferase 1) | no change | no change | 0.02 | 2.01 |
| ING4 (inhibitor of growth family member 4) | no change | no change | -0.68 | -0.2 |
| OR6B2 (olfactory receptor family 6 subfamily B member 2) | no change | no change | -0.68 | -0.26 |
| VCY1B (variable charge Y-linked 1B) | no change | no change | -0.32 | 0.25 |

2 entries from above, arranged by “caspase robust z-score”, lowest first.
| Target gene | viability hit class | caspase hit class | viability robust z-score | caspase robust z-score |
| --- | --- | --- | --- | --- |
| OR1L4 (olfactory receptor family 1 subfamily L member 4) | no change | no change | -0.35 | -0.51 |
| CCDC125 (coiled-coil domain containing 125) | no change | no change | -0.12 | -0.42 |
